Data published in publication PMC3284564.
Results are given in words; binding and its absence hold for the method and conditions named. In cells and extracts the contact can be indirect. Some entries that bind do so weakly or less than the wild type.

Amino acid sequences for entries named in this document (tags omitted). Residues count along the entry.
UniProt Q9QUK6, residues 26-835: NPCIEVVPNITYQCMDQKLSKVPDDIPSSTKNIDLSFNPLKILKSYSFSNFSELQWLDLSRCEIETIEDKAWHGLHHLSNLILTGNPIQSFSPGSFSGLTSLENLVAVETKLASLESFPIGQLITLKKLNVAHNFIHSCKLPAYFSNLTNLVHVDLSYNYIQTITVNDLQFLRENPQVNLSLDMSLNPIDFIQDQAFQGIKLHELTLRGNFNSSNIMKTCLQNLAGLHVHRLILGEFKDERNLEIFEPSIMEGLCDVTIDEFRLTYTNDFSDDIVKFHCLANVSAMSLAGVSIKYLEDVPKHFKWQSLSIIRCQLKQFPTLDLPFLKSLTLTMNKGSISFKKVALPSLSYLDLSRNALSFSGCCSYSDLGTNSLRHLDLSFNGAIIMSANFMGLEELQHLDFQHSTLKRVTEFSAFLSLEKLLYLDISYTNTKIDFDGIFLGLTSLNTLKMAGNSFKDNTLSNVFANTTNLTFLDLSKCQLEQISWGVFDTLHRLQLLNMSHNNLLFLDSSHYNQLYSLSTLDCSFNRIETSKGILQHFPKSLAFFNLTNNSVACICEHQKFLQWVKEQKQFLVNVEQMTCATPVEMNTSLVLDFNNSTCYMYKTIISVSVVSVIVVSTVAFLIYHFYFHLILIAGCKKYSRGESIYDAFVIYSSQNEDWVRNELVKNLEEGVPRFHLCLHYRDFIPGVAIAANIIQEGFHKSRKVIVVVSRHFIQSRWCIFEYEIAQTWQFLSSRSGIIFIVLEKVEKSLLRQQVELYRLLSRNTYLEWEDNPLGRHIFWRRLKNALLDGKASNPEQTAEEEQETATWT

Target: toll-like receptor-4 (TLR4) (UniProt Q9QUK6)
Experiment: co-IP; Ba/F3 cells stably expressing GFP-TLR4 and Flag-TLR4, incubated with media or mmLDL (50 µg/ml) for 15 min; lysates immunoprecipitated with an anti-GFP antibody, immunoblotted with anti-Flag and anti-GFP

toll-like receptor-4 (TLR4) (from UniProt Q9QUK6 26-835)
binding: binds
